From PubChem BioAssay AID248 (DTP/NCI, 2004) come the findings set out here.

The test system of this test is L1210 leukemia ip in BDF1 mice, survival T/C. Description: NCI In Vivo Anticancer Drug Screen. Data for tumor model L1210 Leukemia (intraperitoneal) in B6D2F1 (BDF1) mice. The conditions noted are these: T/C endpoint: mean survival time, higher T/C = longer survival.
The mark [1] stands for this setting: dose: 200.0 mg/kg/injection, schedule: Q04DX002 (ip), vehicle: Klucel (hydroxypropylcellulose) (HPC).
Setting [2] is: dose: 400.0 mg/kg/injection, schedule: Q04DX002 (ip), vehicle: Klucel (hydroxypropylcellulose) (HPC).
Where [3] appears, read: dose: 400.0 mg/kg/injection, schedule: Q04DX003 (ip), vehicle: Klucel (hydroxypropylcellulose) (HPC).
Setting [4] is: dose: 400.0 mg/kg/injection, schedule: Q01DX001 (ip), vehicle: carboxymethylcellulose (CMC).
[5] abbreviates: dose: 100.0 mg/kg/injection, schedule: Q04DX002 (ip), vehicle: saline with Tween-80.
[6] abbreviates: dose: 100.0 mg/kg/injection, schedule: Q04DX003 (ip), vehicle: saline with Tween-80.
Setting [7] is: dose: 400.0 mg/kg/injection, schedule: Q04DX003 (ip), vehicle: saline with Tween-80.
The mark [8] stands for this setting: dose: 300.0 mg/kg/injection, schedule: Q01DX001 (ip), vehicle: saline.
Setting [9] is: dose: 50.0 mg/kg/injection, schedule: Q01DX009 (ip), vehicle: Klucel (hydroxypropylcellulose) (HPC).
Where [10] appears, read: dose: 50.0 mg/kg/injection, schedule: Q04DX003 (ip), vehicle: saline.
Where [11] appears, read: dose: 100.0 mg/kg/injection, schedule: Q04DX003 (ip), vehicle: saline.
Where [12] appears, read: dose: 200.0 mg/kg/injection, schedule: Q04DX003 (ip), vehicle: saline.
[13] abbreviates: dose: 400.0 mg/kg/injection, schedule: Q04DX003 (ip), vehicle: saline.

The list does not hold the whole screen: it gathers tests that were run many times, whatever their T/C, doses with no T/C, and many T/C values between a quarter and a half above the control. Other doses and runs of a compound stand elsewhere. T/C gives the treated animals as a percentage of the vehicle group. Some entries give survivors of the animals treated and no T/C: the source files T/C as zero there, which appears to mark a toxic dose or a test without result, not a measured value. Some survivor counts are full or nearly so, which does not show that the dose was tolerated: survival well below the control is almost never listed, so the zero probably covers shortened survival too. Counts of survivors are from the toxicity check (mostly the fifth day) where no day follows; animals may have died later. Schedule codes are those of the source, read here as Q, the interval in days (D) or hours (H), X, the number of doses. Some entries hold several experiments; the values are given in rising order. Some schedules carry Z or #; the key to these is not given. Where survival is the endpoint, the PubChem record calls one and a half times the control and up active, and a quarter to a half above the control has no call in these data; cut-offs in other NCI protocols can differ.

As to `CN1CCC2CCCCC2C1Cc1ccc(Oc2ccc(CC3C4CCCCC4CCN3C)cc2)cc1` (centres undefined), the survivor count reads like this: (dose: 3.12 mg/kg/injection, schedule: Q04DX002 (ip), vehicle: Klucel (hydroxypropylcellulose) (HPC)) 1 of 3; (dose: 6.25 mg/kg/injection, schedule: Q04DX002 (ip), vehicle: Klucel (hydroxypropylcellulose) (HPC)) 0 of 3; (dose: 12.5 mg/kg/injection, schedule: Q04DX002 (ip), vehicle: Klucel (hydroxypropylcellulose) (HPC)) 0 of 3; (dose: 25.0 mg/kg/injection, schedule: Q04DX002 (ip), vehicle: Klucel (hydroxypropylcellulose) (HPC)) 0 of 3; (dose: 50.0 mg/kg/injection, schedule: Q04DX002 (ip), vehicle: Klucel (hydroxypropylcellulose) (HPC)) 0 of 3; (dose: 100.0 mg/kg/injection, schedule: Q04DX002 (ip), vehicle: Klucel (hydroxypropylcellulose) (HPC)) 0 of 3. The survivor count is reported as 0 of 3 under setting [1] and 0 of 3 under setting [2].
In the case of `[Br][Bi]([Br])([c]1ccccc1)([c]1ccccc1)[c]1ccccc1`, the survivor count under setting [1] was 2 of 3 and the survivor count under setting [2] was 2 of 3.
For `N#Cc1cnc(N)cc1N`, under setting [3], the survivor count was 3 of 6.
Still for that read-out and setting: then `COc1ccc(NC(=O)Oc2ccccc2Cc2ccccc2)cc1`, with 6 of 6.
Regarding `O=C(O)c1c(-c2ccccc2)[nH]c2cc(Cl)ccc2c1=O`, the survivor count under setting [4] was 1 of 4 and the survivor count (dose: 400.0 mg/kg/injection, schedule: Q01DX009 (ip), vehicle: Klucel (hydroxypropylcellulose) (HPC)) was 2 of 6.
On to `O=C(Nc1ccccc1)OCC(OC(=O)Nc1ccccc1)C(COC(=O)Nc1ccccc1)OC(=O)Nc1ccccc1` (centres undefined), for which the survivor count reads like this: under setting [5], 3 of 3; (dose: 200.0 mg/kg/injection, schedule: Q04DX002 (ip), vehicle: saline with Tween-80) 3 of 3.
For `CCN(CC)C(=O)O/N=C(/C)c1ccccc1`, the survivor count (dose: 400.0 mg/kg/injection, schedule: Q01DX001 (ip), vehicle: other) is reported as 2 of 4.
Turning to `C[CH2][Ge]([Cl])([CH2]C)[CH2]C`, the survivor count is, setting by setting: under setting [6], 1 of 6; (dose: 200.0 mg/kg/injection, schedule: Q04DX003 (ip), vehicle: saline with Tween-80) 0 of 6; under setting [7], 0 of 6.
On to `CC1(C)C(=O)Nc2ccccc2N1C(=O)CN1CCCC1`, for which the survivor count (dose: 150.0 mg/kg/injection, schedule: Q04DX003 (ip), vehicle: saline) was 1 of 6 and the survivor count under setting [8] was 0 of 6.
For the molecule `OC1OC(CN(CCCl)c2ccccc2)C(O)C(O)C1O` (centres undefined), the T/C (dose: 40.0 mg/kg/injection, schedule: Q01DX Z (ip), vehicle: methylcellulose (MC)) was 126 % of control.
As to `CC[P+](CC)(CC)c1ccccc1`, the survivor count was 0 of 6 under setting [9]; 0 of 6 under setting [10]; 0 of 6 (dose: 100.0 mg/kg/injection, schedule: Q01DX009 (ip), vehicle: Klucel (hydroxypropylcellulose) (HPC)); 0 of 6 under setting [11]; 0 of 6 under setting [12]; 0 of 6 under setting [13].
For `N=C(N)c1cccc(NC(=O)c2ccc(C(=O)Nc3cccc(C(=N)N)c3)c(N)c2)c1`, under “dose: 40.0 mg/kg/injection, schedule: Q01DX Z (ip), vehicle: carboxymethylcellulose (CMC)”, the T/C was 135 % of control.
As to `Nc1nc(NCCCc2ccccc2)c(N=Nc2ccccc2)c(=O)[nH]1`, the survivor count is 3 of 3 under setting [5]; 6 of 6 under setting [6]; 4 of 6 and 3 of 3 (dose: 400.0 mg/kg/injection, schedule: Q01DX009 (ip), vehicle: saline with Tween-80).
Turning to `O=C(/C=N/O)/C=N/O` (tested in a mixture with another compound), the survivor count under setting [10] is recorded as 2 of 6, the survivor count under setting [11] is 2 of 6, the survivor count under setting [12] is recorded as 0 of 6 and the survivor count under setting [13] is on record as 0 of 6.
Regarding `c1ccc2nc(OCCN3CC3)ccc2c1`, the survivor count runs as follows: (dose: 200.0 mg/kg/injection, schedule: Q01DX001 (ip), vehicle: carboxymethylcellulose (CMC)) 2 of 6; under setting [4], 0 of 6.
With `O=C(/C=N/O)Nc1cc(Cl)c(Cl)cc1Cl`, the survivor count under setting [7] is on record as 3 of 6.
As for `COC1OCC(OS(C)(=O)=O)C(NC(C)=O)C1OS(C)(=O)=O` (centres undefined), under setting [4], the T/C is 126 % of control.
Take `C[n+]1c(O)c(C(=O)CCl)n2cc([N+](=O)[O-])ccc21`: the survivor count is, setting by setting: (dose: 100.0 mg/kg/injection, schedule: Q01DX009 (ip), vehicle: acetone) 3 of 6; (dose: 200.0 mg/kg/injection, schedule: Q01DX009 (ip), vehicle: acetone) 2 of 6; (dose: 400.0 mg/kg/injection, schedule: Q01DX009 (ip), vehicle: acetone) 1 of 6.
In the case of `CC(=O)OC1=CCC(C(C)(C)C)CC1` (centres undefined), the survivor count is given as 6 of 6 under setting [9]; 4 of 6 (dose: 100.0 mg/kg/injection, schedule: Q04DX003 (ip), vehicle: Klucel (hydroxypropylcellulose) (HPC)); 0 of 6 (dose: 200.0 mg/kg/injection, schedule: Q04DX003 (ip), vehicle: Klucel (hydroxypropylcellulose) (HPC)); 0 of 6 under setting [3].
For the molecule `CC=NCc1ccccc1`, the survivor count (dose: 200.0 mg/kg/injection, schedule: Q01DX009 (sc), vehicle: olive oil, sesame oil, peanut oil) is on record as 2 of 6 and the survivor count (dose: 400.0 mg/kg/injection, schedule: Q04DX003 (sc), vehicle: olive oil, sesame oil, peanut oil) is recorded as 4 of 6.
As for `CC1(c2ccc[n+](CC(=O)c3ccccc3)c2)OCCO1`, the survivor count under setting [8] is given as 0 of 6.
Take `O=C(NP(=O)(N1CC1)N1CC1)OCc1ccccc1`: the T/C (dose: 6.0 mg/kg/injection, schedule: Q01DX Z (ip), vehicle: saline) is 148 % of control; the T/C (dose: 12.0 mg/kg/injection, schedule: Q01DX Z (ip), vehicle: saline) is 125 and 129 % of control; the T/C (dose: 25.0 mg/kg/injection, schedule: Q01DX006 (iv), vehicle: clinical formulation) was 141 % of control; the T/C (dose: 40.0 mg/kg/injection, schedule: Q01DX006 (iv), vehicle: saline) is 145 % of control; the T/C (dose: 50.0 mg/kg/injection, schedule: Q01DX009 (ip), vehicle: saline) was 139 % of control. Also, the survivor count is, setting by setting: (dose: 10.0 mg/kg/injection, schedule: Q01DX006 (iv), vehicle: clinical formulation) 6 of 6; (dose: 10.0 mg/kg/injection, schedule: Q01DX Z (ip), vehicle: clinical formulation) 6 of 6; (dose: 20.0 mg/kg/injection, schedule: Q01DX006 (iv), vehicle: clinical formulation) 5 of 6; (dose: 20.0 mg/kg/injection, schedule: Q01DX Z (ip), vehicle: clinical formulation) 6 of 6; (dose: 40.0 mg/kg/injection, schedule: Q01DX006 (iv), vehicle: clinical formulation) 5 of 6; (dose: 40.0 mg/kg/injection, schedule: Q01DX Z (ip), vehicle: clinical formulation) 6 of 6. In addition, the survivor count reads like this: (dose: 80.0 mg/kg/injection, schedule: Q01DX006 (iv), vehicle: clinical formulation) 6 of 6; (dose: 96.0 mg/kg/injection, schedule: Q01DX Z (ip), vehicle: saline) 6 of 6.
